# Primary screen of a compound library

The values are deposited in ChEMBL (CHEMBL3988442, “University of Dundee, Small-Polar-MMV Screening Library” (2021)).

The filed quantity is “Percent Effect” (%). How 0% and 100% were set is not recorded. Most values in the screen are low, and negative values occur. Compounds were drawn at random from those tested, without regard to their results. A dash means the value is not listed here; it may have been measured.

A: 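Whole-cell assay for inhibitors of Mycobacterium tuberculosis growth, labelled Cornell in the record; the read-out is not stated. The concentration is filed as 10 mM, unlikely as a test dose, so the dose is not known. The record gives no direction; compounds strong in two other growth screens of this library score well above the rest, so higher reads as stronger inhibition. About 53,000 compounds were tested under these conditions; 1.7% (about 900) showed 50% or more at least once.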
B: 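Assay on Mycobacterium tuberculosis, filed only as a heat shock assay from Cornell; the read-out is not stated. The concentration is filed as 10 mM, unlikely as a test dose, so the dose is not known. Direction is inferred from retests: higher values go with stronger inhibition. Size under these conditions: about 69,000 compounds, about 930 of them at 50% or above in at least one test.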

SMILES	A	B
O=C(O)C(F)(F)F.c1cc(CN2CCCn3cnc(COCC4CC4)c3C2)co1	26.79	-1.616
Cn1nc2c(cc1=O)CN(CC(=O)Nc1cc(C(C)(C)C)no1)CC2	-25.86	-18.59
O=C1CN(c2ccc(C(=O)N3CCc4ccccc43)cn2)CCN1	-	2.605
NC(=O)c1ccc(NC(=O)CCN2CCCC(N3CCCC3)C2)cc1 (centres undefined)	7.136	-19.61
COc1c(F)cc(NCC(=O)NC(C)(C#N)C2CC2)cc1F (centres undefined)	22.08	20.17
O=C(CNC(=O)C1CC1)NCc1ccc(Cl)s1	-0.2189	27.54
CNC(=O)c1cc2c(nc1NC(C)C)CCNCC2	-40.74	-7.176
CCc1sc(-c2nnc(CNC(C)Cn3cc(C)cn3)o2)cc1C (centres undefined)	15.55	28.09
CN(Cc1cccc(O)c1)C(=O)c1ccc(CCC(C)(C)O)cc1	-19.55	-9.212
Cn1ncnc1NCc1ccc(Cl)cc1	-4.993	-2.615
CC(C)C(=O)NC1CCCN(C(=O)c2ccccc2O)C1 (centres undefined)	-75.16	2.181
Cc1nsc(N2CCN(CC(=O)NCc3cccnc3)CC2)n1	-31.63	14.58
Cc1n[nH]c(C2CN(CC(=O)NCCc3ccc(F)cc3)CCO2)n1 (centres undefined)	15.88	-17.79
CCS(=O)(=O)CCNC(=O)C1(c2cccc(Cl)c2)CC1	-	-26.94
c1ccc(-n2cc(CN3CCCC(Cn4cncn4)C3)nn2)cc1 (centres undefined)	-	9.01
Cc1ccc(N2CCC3(CN(Cc4ccncc4)CCC3(F)F)C2)nn1.O=C(O)C(F)(F)F.O=C(O)C(F)(F)F (centres undefined)	12.92	1.52
O=C(O)C(F)(F)F.[H][C@@]12CO[C@@H](CNC(=O)c3cnn(C)c3)[C@]1([H])CCN(Cc1ccco1)C2	27.75	-6.18
O=C(O)C(F)(F)F.[H][C@]12CCC[C@@H](CN(C)CCOC)[C@@]1([H])CN(c1cc(OC)ncn1)C2	15.96	4.862
O=C(CCNC(=O)C1CCCC1)NCc1ccccc1Cn1cncn1	23.07	-5.558
Cc1cc(C)n(CCN2CCN(C(=O)c3cc4ccccc4o3)CC2)n1	6.605	-16.06
Cc1ccc(C(C)NC(=O)N2CCN(S(C)(=O)=O)CC2)o1 (centres undefined)	-21.77	-5.981
CC1CN(C)CCN1CC(=O)NCCOc1ccc(Cl)cc1 (centres undefined)	-	-3.172
Cc1ccc(C(=O)N2CCC3(CCCC3)CC2)c(=O)[nH]1	8.182	-4.123
[H][C@]12CN(Cc3cc(C)no3)CCN1C[C@H](c1ccccc1)[C@H]2CO	23.99	14.61
COCc1cncc2c1CCN(C(=O)c1ccoc1C)C2	37.57	-0.7035
COc1cc(F)ccc1C(C(=O)O)N1CCN(C2CCCCC2)CC1 (centres undefined)	-	6.977
CC(C)(C)CNC(=O)c1ccc(C(=O)O)cn1	10.02	-16.21
COc1ccc(-c2nccn2CCN2CCCCC2)c(OC)c1OC	-22.39	14.42
Cc1ncnc2c1CCN(C(=O)c1cnccn1)CC2	25.79	-24.49
Cc1nn(C)c(C)c1C(C(=O)O)N1CC=C(c2ccccc2)CC1 (centres undefined)	-	-36.24
Cc1noc(NCc2cc(F)ccc2F)n1	-6.561	-3.185
Cc1nc(CN2CCc3ccc(S(N)(=O)=O)cc32)oc1C	-8.477	3.553
O=C1CSC(c2ccc3c(c2)OCO3)c2cn[nH]c2N1 (centres undefined)	-	-16.09
Cc1cc(CN2CCN(C(=O)c3ccc(=O)n(C)c3)CC2)no1	-	-5.506
CCC(C)NC(=O)c1cccc(CNC(=O)CC(F)(F)F)c1 (centres undefined)	0.4468	19.88
O=C(O)C(F)(F)F.O=C(O)C(F)(F)F.[H][C@]12CCN(c3ncc(C)cn3)[C@@]1([H])CC[C@H](COCc1ccccn1)O2	32.2	-0.9484
Cc1nc[nH]c1CN(Cc1ccccc1)Cc1nccs1	-	-4.72
CS(=O)(=O)NCCC(=O)Nc1cnn(-c2ccccc2Cl)c1	-	-10.7
O=S(=O)(NCCN1CC=CC1)c1cncc(Cl)c1	22.11	1.629
CS(=O)(=O)N1CCN(CC(=O)Nc2cccc(Cl)c2)CC1	23.26	-2.645
COc1ccc(S(=O)(=O)N2C[C@H](OC)[C@]3(CCCO3)C2)cc1	-6.856	-37.14
Cc1cnc(N2C(=O)CSC2c2ccc(F)cc2)s1 (centres undefined)	8.163	-5.836
Cc1ccc(CN(CCCn2ccnc2)Cc2cccs2)s1.O=C(O)CC(O)(CC(=O)O)C(=O)O	40.45	106
CC(c1ccc(Cl)cc1)N1CCN(CCNS(C)(=O)=O)CC1 (centres undefined)	-	7.022
COc1ccccc1C1Cn2c(C)cnc2CN1Cc1ccc(C)nc1 (centres undefined)	-10.88	-35.45
CCCS(=O)(=O)N1CCC(NC(=O)c2cc(C)c(CC)s2)CC1	16.92	7.186
Cc1ncc2c(c1C(=O)O)CCN(c1ncc(F)cn1)C2.O=C(O)C(F)(F)F	-22.62	-13.92
CC(C)OCc1cccc(CNc2cnn(C)c(=O)c2Cl)c1	16.26	5.17
CC(NCc1nnc2n1CCCC2)c1nc(C(C)(C)C)no1 (centres undefined)	-	-20.51
O=C(O)C(F)(F)F.[H][C@@]12COC[C@@H](C(=O)NCc3ccco3)[C@]1([H])CN(c1ncc(F)cn1)C2	23.05	-10.92
O=C(NC1CCCN(Cc2c(F)cccc2F)C1)c1cc[nH]n1 (centres undefined)	-25.78	-36.03
COC(=O)CN(C(=O)c1ccoc1)c1cccc(F)c1	-	-3.129
COCc1nc(NC(C)Cc2cc(C)n[nH]2)c2cnn(C)c2n1 (centres undefined)	13.4	3.432
Cn1cccc1CN1CCc2c(nc(-c3ccccn3)[nH]c2=O)C1	48.42	73.71
OCc1cn(Cc2cccc(C(F)(F)F)c2)nn1	-26.29	6.356
O=C(O)C(F)(F)F.[H][C@@]12CCN(CC(=O)NC)C[C@]1([H])CN(C(=O)c1cccc(C)c1)C2	-	-27.67
CCn1c(CC2CCN(S(=O)(=O)c3cccc(C)c3)CC2)nn(C)c1=O	-19.82	26.14
CCC(CC#N)n1ccc(C(F)(F)F)n1 (centres undefined)	-54.02	-23.06
[H][C@@]12OCCC[C@]1([H])N(C(=O)c1cnc(C)cn1)C[C@H]2NS(C)(=O)=O	14.58	-19.31
CC(C)N1c2sc(-c3ccccc3)nc2CC1C(=O)NCCCO (centres undefined)	-30.03	-2.014
O=C(O)C(F)(F)F.O=C(O)C(F)(F)F.[H][C@@]12CCN(Cc3ccccn3)[C@]1([H])CC[C@H](C(=O)N(C)C)O2	-0.3543	3.803
Cn1cc(NC(=O)N2CCC(CN3CCCC3)CC2)ccc1=O	1.194	7.275
CC(=O)N1CCCC(C(=O)NCCOc2cc(C)cc(C)c2)C1 (centres undefined)	-	-10.56
CC(O)c1cccc(N2CCC3(CCC(=O)N(C4CCCC4)C3)CC2)n1 (centres undefined)	22.38	-23.99
O=C(C1CC(=O)N(c2n[nH]c3cc(Br)ccc23)C1)N1CCSCC1 (centres undefined)	36.42	-4.247
Cc1ccc(C#N)c(N2CCC(c3nccn3Cc3cscn3)CC2)n1	20.59	-3.112
Cc1ncc2c(n1)CN(C(C(N)=O)c1ccc(F)cc1)CC2 (centres undefined)	-10.07	13.44
Cn1cc(CN2CCCC(CCc3ccc(F)cc3F)C2)cn1 (centres undefined)	1.18	-17.21
Cc1cc2n(n1)CC(CNC1CCN(Cc3ccccc3C)CC1)CN2 (centres undefined)	1.638	13.82

6 of the entries, repeated:

| SMILES | A | B |
|---|---|---|
| `O=C(O)C(F)(F)F.[H][C@@]12CO[C@@H](CNC(=O)c3cnn(C)c3)[C@]1([H])CCN(Cc1ccco1)C2` | 27.75 | -6.18 |
| `[H][C@@]12OCCC[C@]1([H])N(C(=O)c1cnc(C)cn1)C[C@H]2NS(C)(=O)=O` | 14.58 | -19.31 |
| `O=C(O)C(F)(F)F.[H][C@@]12CCN(CC(=O)NC)C[C@]1([H])CN(C(=O)c1cccc(C)c1)C2` | - | -27.67 |
| `Cn1cccc1CN1CCc2c(nc(-c3ccccn3)[nH]c2=O)C1` | 48.42 | 73.71 |
| `O=C(CNC(=O)C1CC1)NCc1ccc(Cl)s1` | -0.2189 | 27.54 |
| `O=C(O)C(F)(F)F.c1cc(CN2CCCn3cnc(COCC4CC4)c3C2)co1` | 26.79 | -1.616 |